Laboratory results published in PMC10889294.
Results are given in words; binding and its absence hold for the method and conditions named. Binding seen in cells or lysates may run through a third protein. Binding can be weak; no strength is given. For some assays here: Where a sequence is shown, tags or fusion partners need not be part of it.

Columns and labels:
Full-length THSD1-FLAG = molecular target: T1, Full-length THSD1-FLAG (UniProt Q9NS62); experiment: co-IP; anti-FLAG immunoprecipitation from lysates of HBMECs with THSD1-FLAG induced by doxycycline (100 ng/mL, 48 h); Western blot for talin and THSD1
T1 sequence: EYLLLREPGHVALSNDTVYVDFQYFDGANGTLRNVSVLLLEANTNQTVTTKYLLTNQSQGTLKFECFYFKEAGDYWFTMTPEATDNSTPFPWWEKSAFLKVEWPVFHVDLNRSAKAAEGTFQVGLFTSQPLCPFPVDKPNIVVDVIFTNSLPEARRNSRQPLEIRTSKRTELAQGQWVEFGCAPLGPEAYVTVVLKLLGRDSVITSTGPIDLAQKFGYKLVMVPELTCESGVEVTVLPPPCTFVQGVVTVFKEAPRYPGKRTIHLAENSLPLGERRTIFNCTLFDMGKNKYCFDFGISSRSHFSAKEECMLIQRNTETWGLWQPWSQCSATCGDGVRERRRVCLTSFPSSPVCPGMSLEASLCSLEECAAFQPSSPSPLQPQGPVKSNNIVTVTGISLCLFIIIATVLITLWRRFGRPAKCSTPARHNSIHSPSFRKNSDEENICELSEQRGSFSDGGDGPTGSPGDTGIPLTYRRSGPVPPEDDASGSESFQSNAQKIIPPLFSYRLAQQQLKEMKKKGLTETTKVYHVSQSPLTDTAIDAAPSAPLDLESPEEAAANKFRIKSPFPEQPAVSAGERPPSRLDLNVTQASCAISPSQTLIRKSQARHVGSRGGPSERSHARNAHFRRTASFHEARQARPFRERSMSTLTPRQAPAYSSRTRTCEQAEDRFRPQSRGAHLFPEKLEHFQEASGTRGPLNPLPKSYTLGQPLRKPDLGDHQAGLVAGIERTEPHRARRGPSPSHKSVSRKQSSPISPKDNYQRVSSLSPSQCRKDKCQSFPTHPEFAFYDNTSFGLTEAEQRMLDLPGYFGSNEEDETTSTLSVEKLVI

[1] = molecular target: talin, endogenous (human (endogenous in HBMECs)); experiment: co-IP; immunoprecipitation with anti-talin antibodies from lysates of HBMECs treated with control or talin siRNA (5 nM, 48 h); Western blot for THSD1; both proteins endogenous

“talin, endogenous (human (endogenous in HBMECs))” was tested, and the binding (Full-length THSD1-FLAG) was “binds”.

B1: Thrombospondin Type 1 Domain-Containing Protein 1 (THSD1), endogenous (protein, UniProt Q9NS62 25-852)
chain: T1 sequence
With B1 the binding [1] was “binds”.
